The other results are listed elsewhere or left out.
What was measured:
Assay in all cases: log2 fold change, soluble protein after heating vs DMSO (PISA); higher = thermal stabilisation; K562 cells, 10 uM, 30 min; active = over 0.2 and 3.5 SD of the protein, either way, in both replicates (recomputed)
[1] = compound: CC1=C(C=C(C=C1)NC(=O)C2=CC(=CC=C2)C(C)(C)C#N)NC3=CC4=C(C=C3)N=CN(C4=O)C
Procedure, shortened: (§1)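 K562 cells at 2×10^6 cells/mL were given 10 μM compound for 30 min. Aliquots then went through 3 min of heating across 48°C-58°C, were pooled, and were extracted in PBS with 0.5% NP-40 at 4°C, and the supernatant after 21,000xg for 90 min was quantified by TMTpro 16plex LC-MS/MS with channel sums equalised. Thermal stability relative to control samples, from duplicates, is given as log2 fold change.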

The chains behind the UniProt entries cited, without tags or fusion partners. Where a name states a change or a piece, a line headed by the entry shows the natural chain unless it says otherwise.
UniProt Q9H0E9, whole entry, looked up: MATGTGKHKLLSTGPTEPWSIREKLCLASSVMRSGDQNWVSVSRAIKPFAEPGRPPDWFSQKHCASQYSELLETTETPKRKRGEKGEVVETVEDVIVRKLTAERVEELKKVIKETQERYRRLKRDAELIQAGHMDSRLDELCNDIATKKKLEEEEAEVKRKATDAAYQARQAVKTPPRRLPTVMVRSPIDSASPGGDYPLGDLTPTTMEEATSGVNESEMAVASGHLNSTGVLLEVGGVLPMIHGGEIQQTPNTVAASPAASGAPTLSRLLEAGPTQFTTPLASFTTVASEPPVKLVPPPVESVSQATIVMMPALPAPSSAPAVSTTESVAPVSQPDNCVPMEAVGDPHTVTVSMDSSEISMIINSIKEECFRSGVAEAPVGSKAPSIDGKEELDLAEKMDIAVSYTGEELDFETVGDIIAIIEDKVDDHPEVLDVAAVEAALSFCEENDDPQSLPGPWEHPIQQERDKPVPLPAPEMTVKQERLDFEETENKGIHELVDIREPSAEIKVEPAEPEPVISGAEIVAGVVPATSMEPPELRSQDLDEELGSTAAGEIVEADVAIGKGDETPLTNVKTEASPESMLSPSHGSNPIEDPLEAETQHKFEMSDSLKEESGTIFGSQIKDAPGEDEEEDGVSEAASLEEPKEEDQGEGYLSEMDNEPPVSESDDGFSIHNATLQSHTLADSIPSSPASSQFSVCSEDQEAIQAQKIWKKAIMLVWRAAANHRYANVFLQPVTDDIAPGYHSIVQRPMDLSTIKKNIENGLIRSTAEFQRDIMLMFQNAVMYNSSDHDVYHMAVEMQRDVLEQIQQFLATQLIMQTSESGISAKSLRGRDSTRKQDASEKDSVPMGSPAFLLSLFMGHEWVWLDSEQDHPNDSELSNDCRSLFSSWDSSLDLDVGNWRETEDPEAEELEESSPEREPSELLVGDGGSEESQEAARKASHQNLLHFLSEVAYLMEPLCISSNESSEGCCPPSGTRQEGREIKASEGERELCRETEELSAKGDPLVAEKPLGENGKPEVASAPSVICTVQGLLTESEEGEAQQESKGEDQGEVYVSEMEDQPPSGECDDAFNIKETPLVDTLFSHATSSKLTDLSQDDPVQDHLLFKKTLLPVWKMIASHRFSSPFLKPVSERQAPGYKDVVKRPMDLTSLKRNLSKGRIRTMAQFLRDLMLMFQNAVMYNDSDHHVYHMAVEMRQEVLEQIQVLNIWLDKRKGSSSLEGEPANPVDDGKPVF
UniProt Q9Y679: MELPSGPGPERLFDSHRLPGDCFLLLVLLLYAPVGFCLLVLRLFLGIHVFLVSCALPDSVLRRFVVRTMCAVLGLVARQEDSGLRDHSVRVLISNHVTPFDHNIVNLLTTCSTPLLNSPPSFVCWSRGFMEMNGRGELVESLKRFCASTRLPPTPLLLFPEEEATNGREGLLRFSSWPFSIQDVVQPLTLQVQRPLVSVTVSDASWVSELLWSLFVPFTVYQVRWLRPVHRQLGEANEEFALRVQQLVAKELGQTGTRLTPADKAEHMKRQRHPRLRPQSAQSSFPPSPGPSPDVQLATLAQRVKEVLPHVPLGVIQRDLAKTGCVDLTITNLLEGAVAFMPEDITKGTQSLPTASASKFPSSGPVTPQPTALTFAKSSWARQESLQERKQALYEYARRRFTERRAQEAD
UniProt Q00973: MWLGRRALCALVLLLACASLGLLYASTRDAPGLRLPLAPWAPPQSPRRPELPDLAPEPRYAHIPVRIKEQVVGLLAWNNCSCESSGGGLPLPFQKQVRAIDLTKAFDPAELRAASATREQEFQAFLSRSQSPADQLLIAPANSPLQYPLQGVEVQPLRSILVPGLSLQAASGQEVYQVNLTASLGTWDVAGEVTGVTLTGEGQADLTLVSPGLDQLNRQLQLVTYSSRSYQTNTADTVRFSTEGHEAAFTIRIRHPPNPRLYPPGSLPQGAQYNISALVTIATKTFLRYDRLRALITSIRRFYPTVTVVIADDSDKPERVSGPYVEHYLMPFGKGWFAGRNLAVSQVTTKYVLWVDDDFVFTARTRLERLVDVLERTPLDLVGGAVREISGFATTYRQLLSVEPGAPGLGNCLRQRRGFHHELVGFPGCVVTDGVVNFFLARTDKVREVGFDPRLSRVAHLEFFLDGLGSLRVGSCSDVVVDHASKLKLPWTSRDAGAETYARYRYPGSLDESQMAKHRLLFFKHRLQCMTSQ
UniProt P11274: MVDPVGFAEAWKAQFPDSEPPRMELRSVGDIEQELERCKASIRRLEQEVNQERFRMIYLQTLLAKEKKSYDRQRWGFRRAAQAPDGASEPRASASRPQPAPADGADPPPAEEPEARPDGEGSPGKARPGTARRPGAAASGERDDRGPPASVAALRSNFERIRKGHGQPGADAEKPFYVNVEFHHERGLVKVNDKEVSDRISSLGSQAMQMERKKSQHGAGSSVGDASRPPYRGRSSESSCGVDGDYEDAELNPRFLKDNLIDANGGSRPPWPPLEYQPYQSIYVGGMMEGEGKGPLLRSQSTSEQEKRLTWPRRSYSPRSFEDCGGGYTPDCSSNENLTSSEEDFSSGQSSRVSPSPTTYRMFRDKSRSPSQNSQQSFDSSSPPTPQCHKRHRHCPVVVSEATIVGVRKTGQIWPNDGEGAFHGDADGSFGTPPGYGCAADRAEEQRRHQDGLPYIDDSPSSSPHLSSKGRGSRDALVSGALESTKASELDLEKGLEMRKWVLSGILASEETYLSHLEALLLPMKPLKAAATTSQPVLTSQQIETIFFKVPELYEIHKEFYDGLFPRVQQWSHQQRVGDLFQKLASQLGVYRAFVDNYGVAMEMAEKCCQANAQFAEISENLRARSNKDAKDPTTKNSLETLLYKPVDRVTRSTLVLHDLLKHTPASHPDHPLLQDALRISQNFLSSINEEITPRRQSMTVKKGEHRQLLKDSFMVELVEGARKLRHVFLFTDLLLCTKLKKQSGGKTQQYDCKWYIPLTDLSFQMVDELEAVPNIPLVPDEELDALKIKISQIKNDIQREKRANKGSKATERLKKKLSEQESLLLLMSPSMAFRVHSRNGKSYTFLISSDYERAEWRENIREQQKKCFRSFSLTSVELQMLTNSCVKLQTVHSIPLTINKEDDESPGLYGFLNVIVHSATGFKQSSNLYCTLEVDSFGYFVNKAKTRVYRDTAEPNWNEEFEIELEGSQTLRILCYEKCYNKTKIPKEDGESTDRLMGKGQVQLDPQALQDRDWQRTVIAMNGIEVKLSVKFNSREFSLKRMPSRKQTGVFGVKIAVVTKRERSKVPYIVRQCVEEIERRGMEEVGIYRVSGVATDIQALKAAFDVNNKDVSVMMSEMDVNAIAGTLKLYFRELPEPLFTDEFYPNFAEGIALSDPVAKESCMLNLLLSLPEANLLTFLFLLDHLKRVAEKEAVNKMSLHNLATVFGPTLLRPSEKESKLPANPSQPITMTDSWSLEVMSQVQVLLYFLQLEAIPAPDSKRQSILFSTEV
UniProt Q8TDL5: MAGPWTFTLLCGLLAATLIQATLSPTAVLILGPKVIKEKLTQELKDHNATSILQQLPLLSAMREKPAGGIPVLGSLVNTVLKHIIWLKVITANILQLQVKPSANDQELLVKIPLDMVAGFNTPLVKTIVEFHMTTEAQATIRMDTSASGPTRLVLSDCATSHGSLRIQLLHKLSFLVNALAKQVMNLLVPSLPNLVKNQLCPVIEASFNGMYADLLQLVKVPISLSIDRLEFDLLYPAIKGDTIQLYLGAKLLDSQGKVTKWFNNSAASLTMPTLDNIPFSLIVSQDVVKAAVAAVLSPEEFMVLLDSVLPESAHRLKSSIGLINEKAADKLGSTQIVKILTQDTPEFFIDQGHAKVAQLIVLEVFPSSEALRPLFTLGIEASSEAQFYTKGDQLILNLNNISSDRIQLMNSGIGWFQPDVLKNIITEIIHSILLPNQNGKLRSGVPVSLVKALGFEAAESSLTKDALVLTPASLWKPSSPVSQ
UniProt O60513: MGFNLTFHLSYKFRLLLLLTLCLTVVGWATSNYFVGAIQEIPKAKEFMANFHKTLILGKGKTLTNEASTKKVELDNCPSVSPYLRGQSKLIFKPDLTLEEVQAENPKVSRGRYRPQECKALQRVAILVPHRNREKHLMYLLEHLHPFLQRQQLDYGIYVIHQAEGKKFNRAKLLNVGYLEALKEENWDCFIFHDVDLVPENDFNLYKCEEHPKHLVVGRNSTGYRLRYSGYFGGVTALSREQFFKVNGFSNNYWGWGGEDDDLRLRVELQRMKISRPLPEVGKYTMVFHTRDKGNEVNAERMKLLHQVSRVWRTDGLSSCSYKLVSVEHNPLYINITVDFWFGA
UniProt Q16611: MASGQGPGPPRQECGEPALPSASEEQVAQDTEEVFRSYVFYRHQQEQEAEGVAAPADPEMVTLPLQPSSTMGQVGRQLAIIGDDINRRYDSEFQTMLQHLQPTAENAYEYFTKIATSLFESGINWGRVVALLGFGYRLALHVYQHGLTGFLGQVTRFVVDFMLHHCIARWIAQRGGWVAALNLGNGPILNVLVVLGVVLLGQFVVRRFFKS
UniProt P38398, whole entry, looked up: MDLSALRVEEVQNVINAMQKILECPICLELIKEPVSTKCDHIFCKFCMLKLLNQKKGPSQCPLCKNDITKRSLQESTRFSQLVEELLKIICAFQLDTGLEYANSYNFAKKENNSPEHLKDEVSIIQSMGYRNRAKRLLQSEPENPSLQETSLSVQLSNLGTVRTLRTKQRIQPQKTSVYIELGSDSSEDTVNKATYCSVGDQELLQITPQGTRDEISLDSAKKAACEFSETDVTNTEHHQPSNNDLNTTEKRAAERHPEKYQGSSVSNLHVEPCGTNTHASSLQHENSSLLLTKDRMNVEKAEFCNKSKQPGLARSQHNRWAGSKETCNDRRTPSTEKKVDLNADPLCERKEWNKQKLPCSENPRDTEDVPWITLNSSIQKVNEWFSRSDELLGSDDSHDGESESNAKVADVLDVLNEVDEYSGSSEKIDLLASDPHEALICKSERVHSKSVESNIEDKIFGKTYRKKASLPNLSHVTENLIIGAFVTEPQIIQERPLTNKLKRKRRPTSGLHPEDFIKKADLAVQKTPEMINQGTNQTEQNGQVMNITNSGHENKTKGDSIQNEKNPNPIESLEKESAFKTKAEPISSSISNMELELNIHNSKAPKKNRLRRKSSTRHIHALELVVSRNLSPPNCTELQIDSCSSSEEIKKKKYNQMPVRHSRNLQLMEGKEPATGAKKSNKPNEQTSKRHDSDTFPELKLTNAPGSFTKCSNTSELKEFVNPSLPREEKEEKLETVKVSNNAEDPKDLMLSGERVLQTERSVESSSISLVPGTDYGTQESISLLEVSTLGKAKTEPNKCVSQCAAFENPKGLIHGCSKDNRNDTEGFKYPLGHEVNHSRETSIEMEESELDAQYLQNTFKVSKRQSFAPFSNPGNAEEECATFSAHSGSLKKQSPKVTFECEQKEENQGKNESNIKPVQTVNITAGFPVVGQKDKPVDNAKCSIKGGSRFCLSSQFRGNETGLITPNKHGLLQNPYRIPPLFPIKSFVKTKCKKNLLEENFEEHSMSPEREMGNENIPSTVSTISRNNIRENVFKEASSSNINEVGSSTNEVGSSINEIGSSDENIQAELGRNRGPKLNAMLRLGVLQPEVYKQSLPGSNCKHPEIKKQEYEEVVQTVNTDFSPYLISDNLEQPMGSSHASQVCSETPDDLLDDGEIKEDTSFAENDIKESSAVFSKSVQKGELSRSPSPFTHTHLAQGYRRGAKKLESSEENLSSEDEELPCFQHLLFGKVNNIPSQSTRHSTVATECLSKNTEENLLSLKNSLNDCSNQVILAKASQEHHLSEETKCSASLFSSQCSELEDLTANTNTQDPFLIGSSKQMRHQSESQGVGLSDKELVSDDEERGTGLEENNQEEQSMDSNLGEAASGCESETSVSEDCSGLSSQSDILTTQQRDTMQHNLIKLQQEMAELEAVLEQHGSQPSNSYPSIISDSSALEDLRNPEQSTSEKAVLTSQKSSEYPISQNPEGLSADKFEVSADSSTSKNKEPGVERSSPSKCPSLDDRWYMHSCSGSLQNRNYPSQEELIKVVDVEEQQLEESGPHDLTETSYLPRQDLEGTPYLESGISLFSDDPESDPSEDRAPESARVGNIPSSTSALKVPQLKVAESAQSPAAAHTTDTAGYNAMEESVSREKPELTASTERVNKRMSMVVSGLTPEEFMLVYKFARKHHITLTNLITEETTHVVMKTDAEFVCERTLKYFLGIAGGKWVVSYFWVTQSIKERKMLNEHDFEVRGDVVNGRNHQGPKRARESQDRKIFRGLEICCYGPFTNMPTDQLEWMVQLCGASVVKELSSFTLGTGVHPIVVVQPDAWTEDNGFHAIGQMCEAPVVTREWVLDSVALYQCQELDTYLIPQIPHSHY
UniProt Q4VC05, whole entry, looked up: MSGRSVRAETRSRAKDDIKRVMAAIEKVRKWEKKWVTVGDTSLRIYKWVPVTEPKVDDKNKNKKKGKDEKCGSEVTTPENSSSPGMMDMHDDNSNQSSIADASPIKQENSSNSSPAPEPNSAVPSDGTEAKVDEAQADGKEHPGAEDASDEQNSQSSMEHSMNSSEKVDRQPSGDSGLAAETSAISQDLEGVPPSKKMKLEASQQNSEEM

[2] = compound: CC1=C(C=C(C=C1)NC(=O)C2=CC(=CC=C2)N(C)C)NC(=O)C3=CC=C(C=C3)O
Procedure, shortened: as §1

[3] = compound: CC1=CC=C(C=C1)SC2=C3C=C(SC3=CN=C2)C(=O)N
Procedure, shortened: as §1

[4] = compound: CC1=NC(=CC=C1)C2=C(N=C(N2)C(C)(C)C)C3=CC4=NC=CN=C4C=C3
Procedure, shortened: as §1

Nexturastat A = compound: CCCCN(Cc1ccc(C(=O)NO)cc1)C(=O)Nc1ccccc1 [Nexturastat A]
Procedure, shortened: as §1

vemurafenib = compound: CCCS(=O)(=O)Nc1ccc(F)c(C(=O)c2c[nH]c3ncc(-c4ccc(Cl)cc4)cc23)c1F [vemurafenib]
Procedure, shortened: as §1

[5] = compound: CCCS(=O)(=O)Nc1ccc(F)c(C(=O)c2c[nH]c3ncc(Cl)cc23)c1F
Procedure, shortened: as §1

[6] = compound: CCCc1cc(C)[nH]c(=O)c1CNC(=O)c1cc(-c2ccnc(N3CCN(C)CC3)c2)cc2c1cnn2C(C)C
Procedure, shortened: as §1

givinostat = compound: CCN(CC)Cc1ccc2cc(COC(=O)Nc3ccc(C(=O)NO)cc3)ccc2c1 [givinostat]
Procedure, shortened: as §1

barasertib = compound: CCN(CCCOc1ccc2c(Nc3cc(CC(=O)Nc4cccc(F)c4)[nH]n3)ncnc2c1)CCOP(=O)(O)O [barasertib]
Procedure, shortened: as §1

[7] = compound: CC[C@@H]1C(=O)N(C)c2cnc(Nc3ccc(C(=O)NC4CCN(C)CC4)cc3OC)nc2N1C1CCCC1
Procedure, shortened: as §1

volasertib = compound: CC[C@@H]1C(=O)N(C)c2cnc(Nc3ccc(C(=O)N[C@H]4CC[C@H](N5CCN(CC6CC6)CC5)CC4)cc3OC)nc2N1C(C)C [volasertib]
Procedure, shortened: as §1

[8] = compound: CC[C@H](C)N1C=C(C2=C(C=C(C=C21)C3=CN=C(C=C3)N4CCNCC4)C(=O)NCC5=C(C=C(NC5=O)C)C)C
Procedure, shortened: as §1

epoxomicin = compound: CC[C@H](C)[C@@H](C(=O)N[C@@H]([C@@H](C)O)C(=O)N[C@@H](CC(C)C)C(=O)[C@]1(CO1)C)NC(=O)[C@H]([C@@H](C)CC)N(C)C(=O)C [epoxomicin]
Procedure, shortened: as §1

[9] = compound: CCn1cc(-c2ccnc3[nH]c(-c4cccc(CN(C)C)c4)cc23)c(-c2ccc(NC(=O)N(C)C)cc2)n1
Procedure, shortened: as §1

[10] = compound: CN(C)CC(=O)Nc1ccc2[nH]c(=O)c3ccccc3c2c1
Procedure, shortened: as §1

[11] = compound: CN1C2=C(C3=C1C(=O)N(N=C3)CC4=CC(=CC=C4)N)SC(=C2)S(=O)C
Procedure, shortened: as §1

[12] = compound: CN1CCC(CNc2ccc3ncc(-c4cccc(OC(F)(F)F)c4)n3n2)CC1
Procedure, shortened: as §1

[13] = compound: CCn1c(C(=O)N(C2CC2)C2CC2)cc2c3c(ncn3C)c(Nc3cc(C)n(C)n3)nc21
Procedure, shortened: as §1

rosiglitazone = compound: CN(CCOC1=CC=C(C=C1)C[C@H]2C(=O)NC(=O)S2)C3=CC=CC=N3 (racemic) [rosiglitazone]
Procedure, shortened: as §1

| Target | log2 fold change [1] | log2 fold change [2] | log2 fold change [3] | log2 fold change [4] | log2 fold change (Nexturastat A) | log2 fold change (vemurafenib) | log2 fold change [5] | log2 fold change [6] | log2 fold change (givinostat) | log2 fold change (barasertib) | log2 fold change [7] | log2 fold change (volasertib) | log2 fold change [8] | log2 fold change (epoxomicin) | log2 fold change [9] | log2 fold change [10] | log2 fold change [11] | log2 fold change [12] | log2 fold change [13] | log2 fold change (rosiglitazone) |
| --- | --- | --- | --- | --- | --- | --- | --- | --- | --- | --- | --- | --- | --- | --- | --- | --- | --- | --- | --- | --- |
| BRD8 (UniProt Q9H0E9) | inactive: 0.002 | inactive: 0.026 | inactive: -0.01 | inactive: 0.017 | inactive: -0.098 | inactive: 0.027 | inactive: 0.01 | inactive: 0.002 | inactive: -0.153 | inactive: -0.026 | inactive: 0.038 | inactive: -0.044 | inactive: -0.013 | inactive: 0.039 | inactive: 0.043 | inactive: -0.044 | inactive: 0.025 | inactive: -0.063 | – | – |
| AUP1 (UniProt Q9Y679) | inactive: 0.054 | inactive: 0.021 | inactive: 0.009 | inactive: -0.005 | inactive: -0.048 | inactive: 0.121 | inactive: 0.058 | inactive: -0.056 | inactive: 0.028 | inactive: 0.06 | inactive: -0.132 | inactive: -0.253 | inactive: 0.032 | inactive: 0.046 | inactive: -0.028 | inactive: 0.089 | inactive: 0.014 | active: -0.24 | – | – |
| BRK1 isoform 2 (UniProt Q8WUW1) | inactive: -0.055 | inactive: -0.076 | inactive: 0.103 | inactive: 0.069 | inactive: -0.02 | inactive: 0.044 | inactive: -0.004 | inactive: 0.002 | inactive: 0.022 | inactive: 0.032 | inactive: 0.074 | inactive: -0.021 | inactive: -0.02 | active: 0.497 | inactive: -0.009 | inactive: 0.031 | inactive: -0.053 | inactive: 0.137 | – | – |
| ATR (UniProt Q13535) | inactive: -0.012 | inactive: -0.022 | inactive: 0.013 | inactive: -0.126 | inactive: 0.005 | inactive: 0.035 | inactive: -0.001 | inactive: 0.015 | inactive: 0.039 | inactive: 0.037 | inactive: -0.063 | inactive: -0.197 | inactive: -0.02 | inactive: 0.048 | inactive: -0.041 | inactive: 0.052 | inactive: -0.017 | inactive: 0 | – | – |
| B4GALNT1 (UniProt Q00973) | inactive: 0.075 | inactive: -0.028 | inactive: -0.109 | inactive: 0.005 | inactive: 0.096 | inactive: -0.172 | inactive: -0.044 | inactive: -0.028 | inactive: -0.123 | inactive: 0.104 | inactive: -0.243 | inactive: -0.097 | inactive: -0.115 | inactive: -0.059 | inactive: 0.01 | inactive: 0.143 | inactive: -0.103 | inactive: 0.173 | – | – |
| BPTF (UniProt Q12830) | inactive: 0.053 | – | – | inactive: 0.165 | inactive: -0.086 | – | – | – | inactive: 0.189 | – | – | – | inactive: 0 | inactive: -0.38 | – | – | inactive: 0.096 | – | inactive: -0.351 | – |
| BCR (UniProt P11274) | inactive: 0.029 | inactive: -0.129 | inactive: 0.011 | inactive: -0.136 | inactive: 0.236 | – | inactive: 0.027 | inactive: 0.303 | inactive: 0.151 | inactive: -0.031 | inactive: 0.095 | inactive: -0.518 | – | inactive: -0.235 | inactive: -0.021 | – | inactive: 0.401 | inactive: 0.07 | inactive: 0.008 | inactive: -0.079 |
| BPIFB1 (UniProt Q8TDL5) | inactive: 0.054 | – | – | – | – | – | – | – | – | – | inactive: -0.157 | – | inactive: 0.592 | – | – | – | – | – | – | – |
| B4GALT4 (UniProt O60513) | inactive: -0.007 | inactive: 0.012 | – | – | – | – | – | – | – | inactive: -0.089 | – | – | inactive: 0.104 | – | inactive: 0.372 | – | – | inactive: -0.053 | – | inactive: -0.037 |
| BAK1 (UniProt Q16611) | inactive: -0.006 | – | inactive: -0.019 | inactive: 0.001 | inactive: -0.095 | inactive: -0.095 | inactive: 0.005 | inactive: -0.063 | inactive: -0.07 | inactive: -0.01 | inactive: -0.016 | inactive: 0.039 | inactive: -0.041 | inactive: 0.185 | inactive: 0.137 | inactive: 0.089 | inactive: 0.044 | inactive: 0.154 | inactive: -0.042 | inactive: 0.055 |
| BRCA1 isoform 7 (UniProt P38398) | inactive: -0.32 | inactive: -0.041 | inactive: -0.191 | inactive: -0.163 | – | inactive: 0.27 | inactive: -0.194 | inactive: 0.064 | inactive: 0.379 | – | – | inactive: -0.063 | – | – | – | inactive: -0.171 | – | – | inactive: -0.234 | – |
| BCL7A isoform 2 (UniProt Q4VC05) | inactive: -0.41 | – | inactive: -0.098 | – | inactive: -0.041 | – | inactive: 0.041 | – | inactive: -0.066 | – | inactive: 0.238 | inactive: 0.076 | – | inactive: -0.114 | – | – | – | – | inactive: 0.022 | – |

2 entries from above, tab-delimited.
Target	log2 fold change [1]	log2 fold change [2]	log2 fold change [3]	log2 fold change [4]	log2 fold change (Nexturastat A)	log2 fold change (vemurafenib)	log2 fold change [5]	log2 fold change [6]	log2 fold change (givinostat)	log2 fold change (barasertib)	log2 fold change [7]	log2 fold change (volasertib)	log2 fold change [8]	log2 fold change (epoxomicin)	log2 fold change [9]	log2 fold change [10]	log2 fold change [11]	log2 fold change [12]	log2 fold change [13]	log2 fold change (rosiglitazone)
B4GALT4 (UniProt O60513)	inactive: -0.007	inactive: 0.012	–	–	–	–	–	–	–	inactive: -0.089	–	–	inactive: 0.104	–	inactive: 0.372	–	–	inactive: -0.053	–	inactive: -0.037
BAK1 (UniProt Q16611)	inactive: -0.006	–	inactive: -0.019	inactive: 0.001	inactive: -0.095	inactive: -0.095	inactive: 0.005	inactive: -0.063	inactive: -0.07	inactive: -0.01	inactive: -0.016	inactive: 0.039	inactive: -0.041	inactive: 0.185	inactive: 0.137	inactive: 0.089	inactive: 0.044	inactive: 0.154	inactive: -0.042	inactive: 0.055

Source: the supplement of paper PMC10849652
